Measurements reported in PubChem BioAssay AID504808 (Drosophila RNAi Screening Center, 2011)

Purpose: 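Chromatin factors that keep E2F targets switched off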 (primary screen)
System: Drosophila S2 cells
Reagent: long dsRNA against Drosophila genes
Detection: 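Dual luciferase plate measurements; E2F-specific signal taken as firefly over Renilla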
Direction: E2F firefly: higher = more E2F reporter activity; Renilla normaliser: higher = more normaliser reporter signal
Rule for the call: 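Called active if the normalised E2F reporter went up by over 50%; the cutoff is arbitrary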
In all, the deposit lists about 21,000 reagents; this is a random part of those with a known target gene and a result. Over the whole deposit, 18 (0.084%) are marked active. 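Raw counts without plate normalisation, one of two replicates; the ratio scores behind the calls were not deposited.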 Unmarked entries are inactive. No sequences are given here. Not given: the amount of reagent, the time to read-out.

After knock-down of CG8155 [DRSC07084], the screen gave E2F firefly, rep 1 = 82958; Renilla normaliser, rep 1 = 3603.
Depletion of CCHa2-R [DRSC04825] resulted in: E2F firefly, rep 1 = 1.27e5; Renilla normaliser, rep 1 = 6516.
Against CCHa2-R [DRSC04870] the deposit lists E2F firefly, rep 1 = 1.10e5; Renilla normaliser, rep 1 = 4518.
CCHa2-R [DRSC04871] gave E2F firefly, rep 1 = 1.04e5; Renilla normaliser, rep 1 = 4360.
CG30470 (retired record) [DRSC05553] showed E2F firefly, rep 1 = 97132; Renilla normaliser, rep 1 = 4386.
CG30470 (retired record) [DRSC06260] scored E2F firefly, rep 1 = 1.01e5; Renilla normaliser, rep 1 = 4731.
For CG30470 (retired record) [DRSC06261], the values are E2F firefly, rep 1 = 1.11e5; Renilla normaliser, rep 1 = 4500.
Silencing of CG30470 (retired record) [DRSC06777] came out at: E2F firefly, rep 1 = 1.05e5; Renilla normaliser, rep 1 = 4688.
For CG9876 [DRSC04586] the deposit lists E2F firefly, rep 1 = 93947; Renilla normaliser, rep 1 = 3842.
Silencing of CG2889 [DRSC18236] came out at: E2F firefly, rep 1 = 1.29e5; Renilla normaliser, rep 1 = 5531.
CysRS [DRSC05948] gave E2F firefly, rep 1 = 78558; Renilla normaliser, rep 1 = 3593.
Knock-down of CG31798 [DRSC01702] gave: E2F firefly, rep 1 = 1.20e5; Renilla normaliser, rep 1 = 6065.

2 of these entries, set out differently.
{"predicted target":"CG2889","DRSC id":"DRSC18236","E2F firefly, rep 1":1.29e5,"Renilla normaliser, rep 1":5531}
{"predicted target":"CysRS","DRSC id":"DRSC05948","E2F firefly, rep 1":78558,"Renilla normaliser, rep 1":3593}
